Results are given in words; binding and its absence hold for the method and conditions named. In cells and extracts the contact can be indirect. Some entries that bind do so weakly or less than the wild type.
Target: T1, Interferon regulatory factor 1 (human (endogenous in MV4-11 and Kasumi-1)) (UniProt P10914)
T1 sequence: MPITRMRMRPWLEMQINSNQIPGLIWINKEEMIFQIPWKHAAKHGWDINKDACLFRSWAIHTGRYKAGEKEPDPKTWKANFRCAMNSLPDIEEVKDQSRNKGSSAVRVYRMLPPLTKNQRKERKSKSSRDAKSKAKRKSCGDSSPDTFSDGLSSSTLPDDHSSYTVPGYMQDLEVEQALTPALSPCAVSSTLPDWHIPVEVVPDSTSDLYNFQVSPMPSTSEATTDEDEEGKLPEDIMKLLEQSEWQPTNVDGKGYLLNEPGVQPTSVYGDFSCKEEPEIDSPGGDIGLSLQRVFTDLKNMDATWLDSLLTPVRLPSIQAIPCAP
Test: co-IP; IRF1 antibody and MAg25K/Protein A/G magnetic beads added to cell lysates, overnight at 4 C, washed, eluted, Western blot; MV4-11 and Kasumi-1 cells

The chains behind the UniProt entries cited, without tags or fusion partners.
UniProt P32519: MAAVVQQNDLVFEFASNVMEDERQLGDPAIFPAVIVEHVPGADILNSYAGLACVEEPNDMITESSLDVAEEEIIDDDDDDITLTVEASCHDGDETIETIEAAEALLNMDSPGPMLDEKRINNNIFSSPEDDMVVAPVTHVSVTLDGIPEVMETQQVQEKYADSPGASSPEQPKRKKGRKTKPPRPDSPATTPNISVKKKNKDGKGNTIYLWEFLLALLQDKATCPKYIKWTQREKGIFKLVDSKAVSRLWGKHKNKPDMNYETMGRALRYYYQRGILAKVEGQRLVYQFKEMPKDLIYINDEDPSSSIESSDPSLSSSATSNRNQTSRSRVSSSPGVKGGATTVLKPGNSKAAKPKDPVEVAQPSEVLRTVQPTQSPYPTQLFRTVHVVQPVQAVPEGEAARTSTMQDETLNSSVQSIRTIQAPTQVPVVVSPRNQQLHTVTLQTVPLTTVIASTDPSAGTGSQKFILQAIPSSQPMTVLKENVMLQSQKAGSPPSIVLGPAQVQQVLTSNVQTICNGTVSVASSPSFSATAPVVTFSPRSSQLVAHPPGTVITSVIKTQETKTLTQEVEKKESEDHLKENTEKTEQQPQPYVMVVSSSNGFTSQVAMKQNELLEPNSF
UniProt Q14814: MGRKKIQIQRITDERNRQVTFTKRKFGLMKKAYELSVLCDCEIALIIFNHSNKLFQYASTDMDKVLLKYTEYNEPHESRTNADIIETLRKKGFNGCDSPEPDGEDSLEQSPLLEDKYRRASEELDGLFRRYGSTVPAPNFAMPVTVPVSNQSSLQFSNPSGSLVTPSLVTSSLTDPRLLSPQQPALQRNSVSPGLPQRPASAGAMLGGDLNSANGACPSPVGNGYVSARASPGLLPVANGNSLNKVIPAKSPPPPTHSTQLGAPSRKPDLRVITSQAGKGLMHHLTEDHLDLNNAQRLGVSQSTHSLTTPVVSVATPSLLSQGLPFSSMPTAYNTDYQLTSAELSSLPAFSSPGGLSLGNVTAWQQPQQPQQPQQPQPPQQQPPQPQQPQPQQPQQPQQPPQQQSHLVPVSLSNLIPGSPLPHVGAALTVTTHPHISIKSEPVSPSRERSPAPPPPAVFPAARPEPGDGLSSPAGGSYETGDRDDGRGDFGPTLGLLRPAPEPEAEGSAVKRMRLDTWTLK
UniProt Q13950: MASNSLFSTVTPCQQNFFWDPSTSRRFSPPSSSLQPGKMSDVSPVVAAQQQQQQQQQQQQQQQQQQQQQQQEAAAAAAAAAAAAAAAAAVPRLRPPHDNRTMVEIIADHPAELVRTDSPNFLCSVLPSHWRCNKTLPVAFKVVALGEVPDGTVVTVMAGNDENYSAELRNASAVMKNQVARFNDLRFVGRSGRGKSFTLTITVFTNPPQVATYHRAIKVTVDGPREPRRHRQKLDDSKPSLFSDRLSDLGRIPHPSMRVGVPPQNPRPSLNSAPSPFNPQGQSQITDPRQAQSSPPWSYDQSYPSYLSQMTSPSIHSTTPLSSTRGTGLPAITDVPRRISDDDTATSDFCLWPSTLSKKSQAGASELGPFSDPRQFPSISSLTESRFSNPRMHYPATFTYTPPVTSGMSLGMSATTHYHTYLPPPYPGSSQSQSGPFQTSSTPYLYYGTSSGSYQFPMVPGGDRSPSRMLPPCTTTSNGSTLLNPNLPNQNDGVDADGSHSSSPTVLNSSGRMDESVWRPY
UniProt P41212: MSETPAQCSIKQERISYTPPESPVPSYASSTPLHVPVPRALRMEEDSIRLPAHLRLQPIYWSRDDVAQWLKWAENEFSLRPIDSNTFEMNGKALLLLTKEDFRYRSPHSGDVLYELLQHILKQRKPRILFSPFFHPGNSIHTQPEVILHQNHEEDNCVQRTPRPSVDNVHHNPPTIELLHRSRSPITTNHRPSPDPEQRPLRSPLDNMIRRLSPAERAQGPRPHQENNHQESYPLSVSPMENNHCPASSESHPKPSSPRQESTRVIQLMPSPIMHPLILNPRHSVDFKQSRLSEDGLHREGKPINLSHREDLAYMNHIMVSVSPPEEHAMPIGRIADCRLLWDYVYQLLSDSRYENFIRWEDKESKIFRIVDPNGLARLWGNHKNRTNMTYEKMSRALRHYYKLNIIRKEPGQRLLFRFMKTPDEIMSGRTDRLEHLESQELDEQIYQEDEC

binding	Substance
binds	ELF1 (from UniProt P32519 1-619)
binds	MEF2D (from UniProt Q14814 1-521)
binds	RUNX2 (from UniProt Q13950 1-521)
binds	ETV6 (from UniProt P41212 1-452)

Reference: publication PMC11871635
